Experimental data published in PubChem BioAssay AID504444 (National Center for Advancing Translational Sciences (NCATS), 2011).
Values joined by “and” are separate entries in the source; they are usually repeats but may differ in a detail not shown here. Identical values can stand only once. Hit rate of the full screen: of about 360,000 compounds, about 7,500 (2.1%) were called active. The inconclusive results got no clear call from the source; some entries with a clear call stand among them for comparison. Calls come from the whole dose curve; as a rule, active = well fitted inhibition curve with a large enough effect; inconclusive = small, poorly fitted or top-dose-only effect, or effect the other way; inactive = flat fitted curve, though single readings scatter. A potency beside an inconclusive call is a rough fit, not a confirmed value.

Experiment: Nrf2 qHTS screen for inhibitors; note: nearly all actives have a fitted effect of over 60% in size
Details: A549 ARE-Fluc reporter, luciferase luminescence, 18-24 h; activity change, negative = inhibition: at 46 µM (top of the series)
Summary of the method: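 Nrf2 activity is the BugLite luminescence, read 15 min after reagent at room temperature, following CellTiter-Fluor cytotoxicity readout (30 min, 37C). Compound titrations were applied for 18-24 h to 5000 A549 ARE_Fluc cells/well in 5% FBS OPTI-MEM.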
% is set by controls: 0 for no effect and ±100 for the full control effect; potency is the fitted concentration of half-maximal effect.

| Compound | Potency | activity change, negative = inhibition |
| --- | --- | --- |
| O=C(Nc1ccc(NC(=O)c2ccco2)cc1)c1ccc2c(c1)OCCO2 | inconclusive: 18.4 µM [falling, partial curve, poor fit] | – |
| O=C(NC1=NCCS1)c1cccs1 | inconclusive: 29.1 µM [activator, single point] | – |
| Cc1ccc2c(CN3CCN(C(=O)c4ccc(F)cc4)CC3)cc(=O)oc2c1 | inconclusive: 18.4 µM [activator, partial curve, poor fit] | – |
| COc1ccc2cc(C(=O)Nc3ccc(F)cc3)sc(=O)c2c1OC | inconclusive: 20.6 µM [falling, single point] | – |
| CC1C(C)N(C(=O)CCl)c2ccccc2N1C(=O)CCl (stereo unspecified) | active: 18.4 µM | – |
| COc1cccc(NS(=O)(=O)c2ccc3c(c2)C2C=CCC2C(c2ccc(C(=O)O)cc2)N3)c1 (stereo unspecified) | – | inactive: -7.71% |
| CCN(CC)S(=O)(=O)c1ccc2oc(C(=O)NCc3ccc(C)cc3)c(C)c2c1 | active: 16.4 µM | – |
| Nc1ccc(-n2cnc3cc([N+](=O)[O-])ccc32)cc1 | inconclusive: 7.31 µM [activator, partial curve, poor fit] | – |
| Cc1nn(-c2ccccc2)c(C)c1C(=O)OCC(=O)c1c(N)n(CC(C)C)c(=O)n(C)c1=O | active: 5.8 µM | – |
| Cc1c(C(=O)N2CCN(CC(=O)Nc3ccccc3Cl)CC2)oc2ccc(Br)cc12 | inconclusive: 29.1 µM [falling, single point] | – |
| C/C(=N\Nc1nc2ccccc2c(=O)n1O)c1ccco1 | inconclusive: 16.4 µM [activator, partial curve] | – |
| COc1ccc(OC)c(NC(=O)Cn2cnc3ccc(S(=O)(=O)N4CCC(C)CC4)cc3c2=O)c1 | inconclusive: 6.51 µM [falling, partial curve, poor fit] | – |
| CCCCNc1c(-c2cccc(-c3ccc(OC)cc3)c2)nc2cc(C)ccn12 | inconclusive: 32.6 µM [falling, single point] | – |
| COc1ccc(-c2cc(C(=O)Nc3c(C)nn(Cc4ccc(Cl)cc4)c3C)no2)cc1 | inconclusive: 23.1 µM [falling, partial curve, poor fit] | – |
| CCN(CC)C(=O)CSc1nc2c(sc(=S)n2-c2ccccc2OC)c(=O)n1-c1ccccc1 | inconclusive: 18.4 µM [falling, partial curve, poor fit] | – |
| Cc1ccccc1NC(=O)c1nc(S(C)(=O)=O)ncc1Cl | – | inactive: 2.53% |
| O=C(O)c1nn(CC(=O)N2CCN(c3ncc(C(F)(F)F)cc3Cl)CC2)c(=O)c2ccccc12 | inconclusive: 0.82 µM [activator, full curve] | – |
| CCCOc1cccc(NC(=O)c2c(-c3ccccc3Cl)noc2C)c1 | inconclusive: 29.1 µM [falling, single point] | – |
| CCCCNC(=S)N=Nc1c(O)[nH]c2ccccc12 | inconclusive: 16.4 µM [activator, single point] | – |
| COc1cc(NC(=O)c2cccs2)cc(OC)c1 | inconclusive: 2.59 µM [activator, full curve, poor fit] | – |
| COc1ccc(NC(=O)C2CCCN(S(=O)(=O)c3cccc4nonc34)C2)cc1 (stereo unspecified) | inconclusive: 16.4 µM [falling, single point] | – |

| Compound | Potency | activity change, negative = inhibition |
| --- | --- | --- |
| Fc1ccc(NC(=S)Nc2ccc(Br)cc2)cc1 | active: 18.4 µM | – |
| CCOC(=O)N1CCN(CCC(=O)Nc2ccc(Br)cc2)CC1 | inconclusive: 29.1 µM [falling, single point] | – |
| CN(C(=O)c1ccc(NC(=O)Cc2cccc(NC(=O)C3CCCN(C(=O)C4CC4)C3)c2)cc1)C1CC1 (stereo unspecified) | inconclusive: 25.9 µM [falling, partial curve, poor fit] | – |
| Oc1ccccc1C=NNc1nc2ccccc2s1 | inconclusive: 14.6 µM [activator, partial curve, poor fit] | – |
| Cc1cccc(/C=C2\CCC(C3CCCC3)C2=O)c1 (stereo unspecified) | inconclusive: 1.3 µM [activator, full curve] | – |
| COc1ccc(S(=O)(=O)N2CCOCC2)cc1C(=O)Nc1nc2ccccc2s1 | inconclusive: 3.66 µM [falling, partial curve, poor fit] | – |
| N#C/C(C(=O)c1ccccc1)=C1/CCCCCN1 | inconclusive: 5.17 µM [activator, full curve] | – |
| COc1cccc(NC(=O)C2CCC(CNS(=O)(=O)c3ccc4c(c3)CC(C)N4C(C)=O)CC2)c1 (stereo unspecified) | active: 18.4 µM and active: 20.6 µM | – |
| Cn1c(CCN2CCN(c3ccccn3)CC2)nc2cc(NC(=O)COc3ccccc3)ccc21 | active: 23.1 µM | – |
| COc1cccc(OCc2cc(C(=O)N(C)Cc3nc(C)cs3)no2)c1 | inconclusive: 2.59 µM [activator, full curve, poor fit] | – |
| CC(=O)c1ccc(OCC(=O)N2CCN(S(=O)(=O)c3ccc(Br)s3)CC2)cc1 | inconclusive: 23.1 µM [falling, partial curve, poor fit] | – |
| C=CCn1c(=O)c2ccccc2n2c(SCC(=O)Nc3sc(C(=O)N(CC)CC)c(C)c3C(=O)OCC)nnc12 | inconclusive: 8.2 µM [falling, partial curve, poor fit] | – |
| N/C(=N\OC(=O)COc1ccc(Cl)cc1Br)c1ccncc1 | inconclusive: 8.2 µM [activator, partial curve] | – |
| CC(C)(C)NC(=O)CSCc1ccc(Br)cc1 | inconclusive: 0.0052 µM [falling, partial curve, poor fit] | – |
| CC(C)c1ccccc1NC(=O)COC(=O)CCN1C(=O)/C(=C\C=C\c2ccccc2)SC1=S | active: 10.3 µM | – |
| COc1ccc(CC(=O)Oc2ccc(F)c(F)c2)cc1S(=O)(=O)N1CCOCC1 | – | inactive: 16.3% |
| CCc1nnc(NS(=O)(=O)c2ccc(NC(=O)c3ccc(Cl)cc3)cc2)s1 | – | inactive: -7.75% |
| Cc1cc(CN(C)Cc2cn(C)nc2-c2ccc(Oc3ccccc3)cc2)on1 | inconclusive: 29.1 µM [falling, single point] | – |
| Cn1c(=O)c2c(-c3ccc(Cl)cc3)n(Cc3ccccc3)cc2n(C)c1=O | inconclusive: 23.1 µM [falling, single point] | – |
| CC(=O)c1ccc(NC(=O)CCc2c(C)nc3ncnn3c2C)cc1 | – | inactive: 6% |
